US10772917B2, “Pancreatic endocrine progenitor cell therapies for the treatment of obesity and type 2 diabetes (T2D)” (THE UNIVERSITY OF BRITISH COLUMBIA, priority 2015, dated 2020)
At least one compound was matched to its structure with a doubt left.

Test system: HFD-fed mice
Test: Fasting blood glucose and oral glucose tolerance test in 60% fat diet mice given antidiabetic drug with or without cell transplant (Example 6)
Type: in vivo, mouse (SCID-beige)
Details: 12 weeks post-transplant, cell therapy combined with the drug
Protocol: In the second cohort, mice were placed on either the 10% fat control diet (D12450K; n=8) for the duration of the study of 60% fat diet (D12492; n=64) for 6 weeks, followed by one of the following treatment regimens for the remainder of the study (n=16 per group): (1) 60% fat diet with no drug (D12492), (2) 60% fat diet containing rosiglitazone (18 mg/kg diet or ˜3 mg/kg BW per day; Cayman Chemical™; Research Diets™ custom diet formulation D08121002), (3) 60% fat diet containing sitagliptin (4 g/kg diet or ˜750 mg/kg BW per day; sitagliptin phosphate monohydrate, BioVision™; Research Diets™ custom diet formulation D08062502R), or (4) 60% fat diet (D12492) and metformin (1,1-dimethylbiguanide hydrochloride) in drinking water (1.25 mg/ml or ˜250 mg/kg BW per day). […]
All metabolic analyses were performed in conscious, restrained mice and blood samples were collected via the saphenous vein. BW and blood glucose levels were assessed regularly throughout each study following a 4-hr morning fast. […]
Glucose tolerance tests (GTTs) were performed following a 6-hour morning fast and administration of glucose by oral gavage or intraperitoneal (i.p.) injection (2 glucose/kg BW, 30% solution; Vétoquinol™, Lavaltrie, QC). Glucose-stimulated human C-peptide secretion from engrafted cells was assessed following an overnight fast and an i.p. injection of glucose (2 g/kg). […]

Structure (SMILES): CN(CCOc1ccc(CC2SC(=O)NC2=O)cc1)c1ccccn1 (stereo not shown) [rosiglitazone]
- glucose tolerance (oral glucose tolerance test): ineffective
